Some of the results follow.
What was measured:
Experiment in all cases: log2 fold change, soluble protein after heating vs DMSO (PISA); higher = thermal stabilisation; K562 cells, 10 uM, 30 min; active = over 0.2 and 3.5 SD of the protein, either way, in both replicates (recomputed)
saracatinib = compound: CN1CCN(CCOc2cc(OC3CCOCC3)c3c(Nc4c(Cl)ccc5c4OCO5)ncnc3c2)CC1 [saracatinib]
In short: (§1)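 K562 cells at 2×10^6 cells/mL were treated with 10 μM compound for 30 min. Aliquots were heated for 3 min across 48°C-58°C, pooled, and extracted in PBS with 0.5% NP-40 at 4°C; soluble protein was the supernatant after 21,000xg for 90 min. Soluble protein was quantified by TMTpro 16plex LC-MS/MS with channel sums equalised, and reported as log2 fold change in thermal stability against DMSO controls, with values from duplicates.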

Protein sequences, listed by entry. Tags and fused reporters are not part of them. Lines headed by an entry give the natural chain unless they say otherwise; changes in a name come on top.
UniProt O14657: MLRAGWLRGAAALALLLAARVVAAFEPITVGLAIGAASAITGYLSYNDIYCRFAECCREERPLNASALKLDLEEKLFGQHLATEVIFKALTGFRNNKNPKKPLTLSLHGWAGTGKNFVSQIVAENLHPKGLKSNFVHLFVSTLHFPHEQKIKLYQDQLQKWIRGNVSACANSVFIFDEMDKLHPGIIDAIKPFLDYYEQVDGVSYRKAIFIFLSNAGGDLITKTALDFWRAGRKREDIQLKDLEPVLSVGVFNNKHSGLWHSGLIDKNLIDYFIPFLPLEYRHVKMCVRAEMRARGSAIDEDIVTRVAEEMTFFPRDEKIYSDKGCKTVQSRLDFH
UniProt O75157: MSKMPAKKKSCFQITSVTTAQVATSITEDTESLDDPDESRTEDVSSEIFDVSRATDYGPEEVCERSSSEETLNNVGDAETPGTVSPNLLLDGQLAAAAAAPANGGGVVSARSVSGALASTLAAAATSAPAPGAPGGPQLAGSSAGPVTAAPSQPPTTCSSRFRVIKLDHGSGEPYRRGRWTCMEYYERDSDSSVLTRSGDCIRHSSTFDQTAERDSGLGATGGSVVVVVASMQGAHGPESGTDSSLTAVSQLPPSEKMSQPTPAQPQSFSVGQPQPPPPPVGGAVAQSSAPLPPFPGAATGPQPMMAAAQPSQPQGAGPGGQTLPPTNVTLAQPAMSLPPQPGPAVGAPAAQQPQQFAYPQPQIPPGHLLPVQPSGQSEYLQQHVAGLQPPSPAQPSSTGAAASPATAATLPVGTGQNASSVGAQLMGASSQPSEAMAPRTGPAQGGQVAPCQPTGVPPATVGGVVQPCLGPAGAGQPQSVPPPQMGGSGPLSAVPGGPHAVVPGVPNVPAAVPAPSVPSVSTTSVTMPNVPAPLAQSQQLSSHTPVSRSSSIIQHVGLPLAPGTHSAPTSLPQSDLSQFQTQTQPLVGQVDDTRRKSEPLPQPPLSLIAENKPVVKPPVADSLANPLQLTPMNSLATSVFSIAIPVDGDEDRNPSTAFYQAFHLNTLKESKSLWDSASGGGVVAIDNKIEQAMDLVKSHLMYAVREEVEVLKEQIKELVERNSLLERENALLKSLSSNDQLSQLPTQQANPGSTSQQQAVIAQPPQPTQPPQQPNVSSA
UniProt Q969M1: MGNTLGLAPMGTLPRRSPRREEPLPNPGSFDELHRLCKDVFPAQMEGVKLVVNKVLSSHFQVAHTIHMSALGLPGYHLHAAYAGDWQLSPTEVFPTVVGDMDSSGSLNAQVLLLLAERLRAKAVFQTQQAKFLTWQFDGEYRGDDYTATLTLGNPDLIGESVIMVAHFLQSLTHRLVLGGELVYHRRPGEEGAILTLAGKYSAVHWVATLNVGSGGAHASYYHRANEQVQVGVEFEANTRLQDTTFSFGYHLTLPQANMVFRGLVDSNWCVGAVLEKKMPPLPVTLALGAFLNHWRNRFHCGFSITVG
UniProt Q5JU69: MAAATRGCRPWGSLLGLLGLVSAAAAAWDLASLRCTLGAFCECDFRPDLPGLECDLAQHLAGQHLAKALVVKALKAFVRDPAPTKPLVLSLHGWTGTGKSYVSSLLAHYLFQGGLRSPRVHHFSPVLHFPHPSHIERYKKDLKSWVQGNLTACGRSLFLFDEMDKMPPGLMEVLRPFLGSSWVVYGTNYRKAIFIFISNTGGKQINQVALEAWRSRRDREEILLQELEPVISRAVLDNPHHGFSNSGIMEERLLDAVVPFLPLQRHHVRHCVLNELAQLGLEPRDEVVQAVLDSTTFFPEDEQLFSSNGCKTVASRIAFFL
UniProt O94826, whole entry, looked up: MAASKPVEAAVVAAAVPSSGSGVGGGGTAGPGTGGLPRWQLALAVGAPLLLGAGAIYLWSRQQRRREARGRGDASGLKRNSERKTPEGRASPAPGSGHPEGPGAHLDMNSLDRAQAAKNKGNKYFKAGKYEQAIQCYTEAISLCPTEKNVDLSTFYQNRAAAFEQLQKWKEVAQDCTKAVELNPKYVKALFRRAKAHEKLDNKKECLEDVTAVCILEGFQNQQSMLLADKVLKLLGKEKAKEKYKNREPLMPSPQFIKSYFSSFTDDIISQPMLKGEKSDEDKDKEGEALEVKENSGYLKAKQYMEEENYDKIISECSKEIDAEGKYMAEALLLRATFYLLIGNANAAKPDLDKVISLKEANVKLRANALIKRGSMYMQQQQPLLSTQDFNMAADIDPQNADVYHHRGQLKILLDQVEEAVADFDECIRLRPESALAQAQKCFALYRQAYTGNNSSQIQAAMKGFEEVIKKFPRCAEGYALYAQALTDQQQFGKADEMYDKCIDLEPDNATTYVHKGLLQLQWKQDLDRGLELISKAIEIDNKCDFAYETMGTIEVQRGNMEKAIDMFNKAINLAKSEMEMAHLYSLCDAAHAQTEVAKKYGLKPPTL
UniProt P06753, whole entry, looked up: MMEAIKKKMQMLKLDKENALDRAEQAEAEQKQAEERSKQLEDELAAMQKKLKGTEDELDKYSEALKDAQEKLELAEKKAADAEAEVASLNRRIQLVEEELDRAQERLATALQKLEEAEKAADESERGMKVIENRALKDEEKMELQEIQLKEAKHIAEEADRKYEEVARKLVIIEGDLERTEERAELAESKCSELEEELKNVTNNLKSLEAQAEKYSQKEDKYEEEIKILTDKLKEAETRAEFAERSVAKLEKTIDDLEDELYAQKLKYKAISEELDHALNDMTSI
UniProt P11387: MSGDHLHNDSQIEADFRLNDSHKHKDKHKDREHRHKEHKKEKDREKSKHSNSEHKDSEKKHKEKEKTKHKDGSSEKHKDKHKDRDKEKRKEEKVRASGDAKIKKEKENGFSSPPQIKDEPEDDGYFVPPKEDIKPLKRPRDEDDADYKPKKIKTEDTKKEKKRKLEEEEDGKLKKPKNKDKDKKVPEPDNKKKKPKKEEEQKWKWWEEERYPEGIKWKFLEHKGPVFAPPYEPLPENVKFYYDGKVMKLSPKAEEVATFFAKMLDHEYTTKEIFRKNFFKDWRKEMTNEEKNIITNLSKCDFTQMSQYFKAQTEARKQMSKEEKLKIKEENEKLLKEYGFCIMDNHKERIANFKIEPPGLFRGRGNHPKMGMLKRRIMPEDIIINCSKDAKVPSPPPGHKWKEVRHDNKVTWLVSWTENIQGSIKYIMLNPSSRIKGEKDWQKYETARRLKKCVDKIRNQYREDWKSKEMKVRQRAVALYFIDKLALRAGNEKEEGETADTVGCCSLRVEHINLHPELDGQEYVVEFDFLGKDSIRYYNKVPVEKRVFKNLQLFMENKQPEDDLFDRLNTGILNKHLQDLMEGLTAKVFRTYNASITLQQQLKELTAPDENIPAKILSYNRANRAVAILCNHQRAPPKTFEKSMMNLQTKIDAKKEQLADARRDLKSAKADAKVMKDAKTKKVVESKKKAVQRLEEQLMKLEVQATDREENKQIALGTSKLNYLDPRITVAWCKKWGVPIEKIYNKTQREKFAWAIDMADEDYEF
UniProt Q12931: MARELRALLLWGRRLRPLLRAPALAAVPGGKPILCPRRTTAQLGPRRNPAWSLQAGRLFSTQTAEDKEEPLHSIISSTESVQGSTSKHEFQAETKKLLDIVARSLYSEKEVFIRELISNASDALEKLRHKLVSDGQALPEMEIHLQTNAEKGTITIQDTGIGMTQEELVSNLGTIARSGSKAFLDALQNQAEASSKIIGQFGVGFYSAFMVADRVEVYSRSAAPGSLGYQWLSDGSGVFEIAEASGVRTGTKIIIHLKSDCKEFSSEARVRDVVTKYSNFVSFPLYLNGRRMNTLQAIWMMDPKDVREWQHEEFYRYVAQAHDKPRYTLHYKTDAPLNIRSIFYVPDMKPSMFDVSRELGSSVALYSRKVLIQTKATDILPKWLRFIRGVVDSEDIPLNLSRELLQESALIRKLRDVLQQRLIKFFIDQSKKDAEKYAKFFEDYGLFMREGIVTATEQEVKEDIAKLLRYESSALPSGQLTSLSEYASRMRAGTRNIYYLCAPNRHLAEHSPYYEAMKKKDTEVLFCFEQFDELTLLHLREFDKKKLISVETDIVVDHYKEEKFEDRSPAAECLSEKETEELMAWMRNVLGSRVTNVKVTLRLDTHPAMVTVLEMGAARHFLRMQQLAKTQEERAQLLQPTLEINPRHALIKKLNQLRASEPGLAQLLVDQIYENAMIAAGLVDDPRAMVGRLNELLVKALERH
UniProt Q8WW01: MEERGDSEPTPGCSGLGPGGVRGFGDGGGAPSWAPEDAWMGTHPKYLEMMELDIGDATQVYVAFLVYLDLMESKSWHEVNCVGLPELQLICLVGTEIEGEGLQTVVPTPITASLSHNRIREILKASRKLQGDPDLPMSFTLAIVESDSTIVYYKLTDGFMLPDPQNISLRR
UniProt Q5JTV8: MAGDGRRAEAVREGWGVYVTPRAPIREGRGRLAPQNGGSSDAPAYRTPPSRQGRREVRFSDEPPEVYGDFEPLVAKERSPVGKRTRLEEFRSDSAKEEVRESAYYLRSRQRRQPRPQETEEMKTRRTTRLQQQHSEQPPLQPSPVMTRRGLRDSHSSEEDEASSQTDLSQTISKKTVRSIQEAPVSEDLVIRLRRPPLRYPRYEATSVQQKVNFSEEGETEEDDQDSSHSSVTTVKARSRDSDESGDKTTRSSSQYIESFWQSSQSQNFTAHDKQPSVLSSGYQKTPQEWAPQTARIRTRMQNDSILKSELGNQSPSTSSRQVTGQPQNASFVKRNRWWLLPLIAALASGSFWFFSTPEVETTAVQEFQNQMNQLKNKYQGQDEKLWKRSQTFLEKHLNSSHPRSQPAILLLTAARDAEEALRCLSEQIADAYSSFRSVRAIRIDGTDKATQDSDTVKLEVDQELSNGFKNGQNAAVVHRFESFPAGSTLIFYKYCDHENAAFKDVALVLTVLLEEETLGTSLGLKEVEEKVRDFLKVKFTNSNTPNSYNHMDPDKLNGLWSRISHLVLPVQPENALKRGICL
UniProt Q15714: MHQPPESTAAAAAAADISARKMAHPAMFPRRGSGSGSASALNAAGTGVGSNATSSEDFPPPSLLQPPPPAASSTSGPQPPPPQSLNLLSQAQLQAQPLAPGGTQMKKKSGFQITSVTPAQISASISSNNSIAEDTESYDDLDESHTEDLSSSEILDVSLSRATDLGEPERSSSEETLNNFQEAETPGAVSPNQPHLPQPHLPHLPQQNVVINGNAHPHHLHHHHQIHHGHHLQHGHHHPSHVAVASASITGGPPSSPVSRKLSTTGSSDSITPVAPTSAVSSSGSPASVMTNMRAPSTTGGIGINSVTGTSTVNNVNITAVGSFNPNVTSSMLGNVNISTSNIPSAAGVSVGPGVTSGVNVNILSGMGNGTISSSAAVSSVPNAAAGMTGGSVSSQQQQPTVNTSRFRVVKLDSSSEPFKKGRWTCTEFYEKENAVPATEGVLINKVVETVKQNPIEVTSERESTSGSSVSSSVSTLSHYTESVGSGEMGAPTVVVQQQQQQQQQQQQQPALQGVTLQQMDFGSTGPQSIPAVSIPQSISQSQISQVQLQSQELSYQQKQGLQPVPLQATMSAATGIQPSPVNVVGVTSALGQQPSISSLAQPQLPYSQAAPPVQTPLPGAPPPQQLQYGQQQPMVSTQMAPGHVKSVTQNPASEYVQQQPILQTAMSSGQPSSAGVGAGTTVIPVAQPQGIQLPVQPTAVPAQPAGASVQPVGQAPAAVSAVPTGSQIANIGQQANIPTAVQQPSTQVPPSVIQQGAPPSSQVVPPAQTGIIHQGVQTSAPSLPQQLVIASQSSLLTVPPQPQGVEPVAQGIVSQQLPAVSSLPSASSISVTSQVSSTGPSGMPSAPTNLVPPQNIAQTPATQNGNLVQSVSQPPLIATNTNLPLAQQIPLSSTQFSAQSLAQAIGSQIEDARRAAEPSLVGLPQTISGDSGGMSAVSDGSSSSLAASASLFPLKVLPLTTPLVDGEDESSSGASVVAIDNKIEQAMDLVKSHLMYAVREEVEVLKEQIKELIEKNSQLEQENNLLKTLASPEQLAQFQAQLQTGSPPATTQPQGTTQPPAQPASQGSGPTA
UniProt Q9Y5R8, whole entry, looked up: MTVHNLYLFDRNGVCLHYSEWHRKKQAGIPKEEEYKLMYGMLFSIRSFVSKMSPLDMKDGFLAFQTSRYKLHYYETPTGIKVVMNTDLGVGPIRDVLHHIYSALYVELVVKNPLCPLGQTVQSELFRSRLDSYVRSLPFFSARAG
UniProt P20333, whole entry, looked up: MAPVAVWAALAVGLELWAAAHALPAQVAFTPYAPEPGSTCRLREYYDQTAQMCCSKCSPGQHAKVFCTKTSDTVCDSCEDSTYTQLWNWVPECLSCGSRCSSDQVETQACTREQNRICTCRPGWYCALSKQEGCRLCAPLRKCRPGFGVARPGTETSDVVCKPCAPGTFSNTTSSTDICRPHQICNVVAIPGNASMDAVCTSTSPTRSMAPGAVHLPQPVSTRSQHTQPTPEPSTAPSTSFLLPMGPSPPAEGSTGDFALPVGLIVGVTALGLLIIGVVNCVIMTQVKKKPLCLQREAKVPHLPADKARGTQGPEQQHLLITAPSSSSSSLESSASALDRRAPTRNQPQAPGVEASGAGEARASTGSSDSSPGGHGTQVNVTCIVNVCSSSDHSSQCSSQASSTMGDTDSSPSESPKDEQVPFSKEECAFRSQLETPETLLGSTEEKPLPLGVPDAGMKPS

sotrastaurin = compound: CN1CCN(c2nc(C3=C(c4c[nH]c5ccccc45)C(=O)NC3=O)c3ccccc3n2)CC1 [sotrastaurin]
In short: as §1

alvocidib = compound: CN1CC[C@H](c2c(O)cc(O)c3c(=O)cc(-c4ccccc4Cl)oc23)[C@H](O)C1 [alvocidib]
In short: as §1

Tubastatin A = compound: CN1CCc2c(c3ccccc3n2Cc2ccc(C(=O)NO)cc2)C1 [Tubastatin A]
In short: as §1

[1] = compound: CNC(=O)C1=CC=CC=C1NC2=NC(=NC=C2Cl)NC3=C(C=C(C=C3)N4CCOCC4)OC
In short: as §1

defactinib = compound: CNC(=O)c1ccc(Nc2ncc(C(F)(F)F)c(NCc3nccnc3N(C)S(C)(=O)=O)n2)cc1 [defactinib]
In short: as §1

rucaparib = compound: CNCc1ccc(-c2[nH]c3cc(F)cc4c3c2CCNC4=O)cc1 [rucaparib]
In short: as §1

[2] = compound: CNc1nc(-c2ccc3c(N)n[nH]c3c2)cc(N2C[C@@H](C(=O)NC3CCCCC3)CC[C@H]2C)n1
In short: as §1

encorafenib = compound: COC(=O)N[C@@H](C)CNc1nccc(-c2cn(C(C)C)nc2-c2cc(Cl)cc(NS(C)(=O)=O)c2F)n1 [encorafenib]
In short: as §1

[3] = compound: COC(=O)[C@H](CCSC)NC(=O)C1=C(C=C(C=C1)NC[C@H](CS)N)C2=CC=CC=C2
In short: as §1

[4] = compound: COC1=CC=C(C=C1)CN2C=CC3=C2C=C(C=C3)C(=O)NO
In short: as §1

filanesib = compound: CON(C)C(=O)N1N=C(c2cc(F)ccc2F)S[C@@]1(CCCN)c1ccccc1 [filanesib]
In short: as §1

zotarolimus = compound: CO[C@H]1C[C@@H]2CC[C@@H](C)[C@@](O)(O2)C(=O)C(=O)N2CCCC[C@H]2C(=O)O[C@H]([C@H](C)C[C@@H]2CC[C@H](n3cnnn3)[C@H](OC)C2)CC(=O)[C@H](C)/C=C(\C)[C@@H](O)[C@@H](OC)C(=O)[C@H](C)C[C@H](C)/C=C/C=C/C=C/1C [zotarolimus]
In short: as §1

idasanutlin = compound: COc1cc(C(=O)O)ccc1NC(=O)[C@@H]1N[C@@H](CC(C)(C)C)[C@](C#N)(c2ccc(Cl)cc2F)[C@H]1c1cccc(Cl)c1F [idasanutlin]
In short: as §1

alisertib = compound: COc1cc(Nc2ncc3c(n2)-c2ccc(Cl)cc2C(c2c(F)cccc2OC)=NC3)ccc1C(=O)O [alisertib]
In short: as §1

[5] = compound: COc1cc2nc(-c3cc(F)ccc3O)nc(N[C@@H]3CNC[C@H]3C(C)(C)O)c2cc1OC
In short: as §1

gefitinib = compound: COc1cc2ncnc(Nc3ccc(F)c(Cl)c3)c2cc1OCCCN1CCOCC1 [gefitinib]
In short: as §1

[6] = compound: COc1cccc2cc(-c3nc([C@H]4CC[C@H](C(=O)O)CC4)n4ncnc(N)c34)[nH]c12
In short: as §1

lapatinib = compound: CS(=O)(=O)CCNCc1ccc(-c2ccc3ncnc(Nc4ccc(OCc5cccc(F)c5)c(Cl)c4)c3c2)o1 [lapatinib]
In short: as §1

pictilisib = compound: CS(=O)(=O)N1CCN(Cc2cc3nc(-c4cccc5[nH]ncc45)nc(N4CCOCC4)c3s2)CC1 [pictilisib]
In short: as §1

Measured: log2 fold change

TOR1B (UniProt O14657)
inactive: saracatinib 0.025 | sotrastaurin -0.001 | alvocidib 0.017 | Tubastatin A -0.025 | [1] -0.031 | defactinib -0.027 | rucaparib 0.001 | [2] -0.014 | encorafenib 0.032 | [3] 0.03 | [4] -0.018 | filanesib 0.011 | zotarolimus -0.008 | idasanutlin -0.047 | alisertib -0.049 | [5] -0.012 | gefitinib 0.009 | [6] 0.052 | lapatinib 0.002 | pictilisib -0.005

TSC22D2 (UniProt O75157)
inactive: saracatinib 0.03 | sotrastaurin -0.001 | alvocidib -0.006 | Tubastatin A -0.081 | [1] -0.022 | defactinib -0.054 | rucaparib -0.016 | [2] -0.072 | encorafenib -0.092 | [3] 0.101 | [4] -0.08 | filanesib 0.061 | zotarolimus -0.02 | idasanutlin 0.049 | alisertib -0.194 | [5] 0.075 | gefitinib 0.06 | [6] -0.054 | lapatinib -0.071 | pictilisib 0.051

TOMM40L (UniProt Q969M1)
inactive: saracatinib 0.057 | sotrastaurin -0.004 | alvocidib 0.009 | Tubastatin A 0.015 | [1] -0.074 | defactinib -0.031 | rucaparib -0.021 | [2] -0.089 | encorafenib 0.011 | [3] 0.013 | [4] -0.07 | filanesib 0.004 | zotarolimus -0.015 | idasanutlin -0.074 | alisertib 0.079 | [5] 0.008 | gefitinib 0.002 | [6] 0.079 | lapatinib -0.066 | pictilisib 0.001

TOR2A (UniProt Q5JU69)
inactive: saracatinib -0.007 | sotrastaurin 0.006 | alvocidib -0.029 | Tubastatin A 0.079 | [1] -0.014 | defactinib -0.066 | rucaparib -0.036 | [2] 0.031 | encorafenib 0.064 | [3] -0.265 | [4] -0.003 | filanesib -0.123 | zotarolimus 0.091 | idasanutlin 0.076 | alisertib -0.117 | [5] 0.083 | gefitinib -0.011 | [6] 0.114 | lapatinib 0.023 | pictilisib -0.035

TOMM70 (UniProt O94826)
inactive: saracatinib -0.018 | sotrastaurin -0.028 | alvocidib -0.063 | Tubastatin A -0.02 | [1] 0.02 | defactinib -0.03 | rucaparib 0.014 | [2] 0.051 | encorafenib 0.051 | [3] -0.001 | [4] 0.004 | filanesib -0.008 | zotarolimus 0.049 | idasanutlin -0.025 | alisertib 0.09 | [5] 0.072 | gefitinib 0.03 | [6] -0.025 | lapatinib -0.046 | pictilisib -0.002

TNKS1BP1 (UniProt Q9C0C2)
inactive: saracatinib 0.022 | sotrastaurin 0.025 | alvocidib 0.021 | Tubastatin A 0.037 | [1] -0.049 | defactinib -0.01 | rucaparib 0.04 | [2] -0.007 | encorafenib -0.074 | [3] 0.033 | [4] -0.001 | filanesib 0.044 | zotarolimus -0.036 | idasanutlin 0.066 | alisertib -0.009 | [5] 0.038 | gefitinib -0.003 | [6] 0.025 | lapatinib 0.01 | pictilisib 0.012

TPM3 isoform 2 (UniProt P06753)
inactive: saracatinib 0.009 | sotrastaurin 0.066 | alvocidib -0.003 | Tubastatin A 0.034 | [1] -0.005 | defactinib -0.031 | rucaparib -0.079 | [2] -0.001 | encorafenib -0.041 | [3] -0.014 | [4] -0.141 | filanesib 0.008 | zotarolimus -0.013 | idasanutlin 0.032 | alisertib -0.034 | [5] 0.198 | gefitinib 0.05 | [6] 0.046 | lapatinib 0.141 | pictilisib 0.021

TOP1 (UniProt P11387)
inactive: saracatinib -0.105 | sotrastaurin -0.053 | alvocidib 0.259 | Tubastatin A 0.026 | [1] 0.018 | defactinib 0.26 | rucaparib 0.421 | [2] 0.223 | encorafenib 0.224 | [3] 0.017 | [4] 0 | filanesib 0.247 | zotarolimus 0.112 | idasanutlin 0.15 | alisertib -0.065 | [5] 0.019 | gefitinib -0.098 | [6] -0.103 | lapatinib 0.038 | pictilisib -0.135

TRAP1 (UniProt Q12931)
inactive: saracatinib 0.03 | sotrastaurin 0.028 | alvocidib -0.018 | Tubastatin A -0.041 | [1] -0.003 | defactinib 0 | rucaparib -0.007 | [2] -0.022 | encorafenib -0.022 | [3] 0.019 | [4] 0.039 | filanesib -0.052 | zotarolimus -0.004 | idasanutlin -0.038 | alisertib -0.048 | [5] -0.022 | gefitinib 0.012 | [6] 0.073 | lapatinib -0.029 | pictilisib -0.005

TSEN15 (UniProt Q8WW01)
inactive: saracatinib -0.022 | sotrastaurin -0.085 | alvocidib -0.082 | Tubastatin A 0.033 | [1] -0.054 | defactinib -0.072 | rucaparib -0.076 | [2] -0.009 | encorafenib 0.003 | [3] 0.088 | [4] -0.062 | filanesib 0.04 | zotarolimus 0.059 | idasanutlin 0.018 | alisertib -0.005 | [5] 0.045 | gefitinib 0.021 | [6] 0.018 | lapatinib 0.011 | pictilisib -0.04

TOR1AIP1 isoform 3 (UniProt Q5JTV8)
inactive: saracatinib 0.02 | sotrastaurin 0.031 | alvocidib -0.017 | Tubastatin A -0.019 | [1] -0.002 | defactinib -0.021 | rucaparib 0.014 | [2] -0.046 | encorafenib -0.025 | [3] 0.036 | [4] -0.025 | filanesib -0.028 | zotarolimus -0.021 | idasanutlin -0.027 | alisertib 0.086 | [5] 0.027 | gefitinib 0.003 | [6] 0.013 | lapatinib -0.055 | pictilisib -0.008

TSC22D1 (UniProt Q15714)
inactive: saracatinib -0.034 | sotrastaurin -0.028 | alvocidib -0.068 | Tubastatin A 0.013 | [1] 0.029 | defactinib 0.006 | rucaparib -0.012 | [2] -0.07 | encorafenib -0.013 | [3] -0.011 | [4] 0.072 | filanesib -0.005 | zotarolimus -0.022 | idasanutlin -0.006 | alisertib -0.042 | [5] 0.033 | gefitinib 0.015 | [6] 0.006 | lapatinib 0.099 | pictilisib 0.11

TRAPPC1 (UniProt Q9Y5R8)
inactive: saracatinib -0.016 | sotrastaurin 0.039 | alvocidib -0.059 | Tubastatin A 0.023 | [1] -0.047 | defactinib -0.059 | rucaparib -0.023 | [2] 0.049 | encorafenib 0 | [3] 0.042 | [4] 0.154 | filanesib 0.036 | zotarolimus 0.136 | idasanutlin -0.117 | alisertib 0.04 | [5] 0.025 | gefitinib 0.022 | [6] 0.127 | lapatinib 0.021 | pictilisib -0.003

TOMM40 (UniProt O96008)
inactive: saracatinib 0.049 | sotrastaurin 0.011 | alvocidib -0.026 | Tubastatin A -0.009 | [1] -0.013 | defactinib 0.007 | rucaparib -0.064 | [2] -0.021 | encorafenib 0.015 | [3] -0.008 | [4] 0.064 | filanesib -0.061 | zotarolimus 0 | idasanutlin -0.064 | alisertib -0.034 | [5] -0.027 | gefitinib 0.005 | [6] 0.056 | lapatinib 0.012 | pictilisib -0.055

TNFRSF1B (UniProt P20333)
inactive: saracatinib 0.235 | sotrastaurin 0.019 | alvocidib 0.018 | Tubastatin A 0.047 | [1] 0.022 | defactinib 0.082 | rucaparib 0.068 | [2] -0.072 | encorafenib 0.036 | [3] 0.174 | [4] -0.062 | filanesib 0.009 | zotarolimus -0.045 | idasanutlin -0.009 | alisertib 0 | [5] -0.001 | gefitinib -0.005 | [6] -0.011 | lapatinib 0.054 | pictilisib 0.079

TNIK isoform 6 (UniProt Q9UKE5)
inactive: saracatinib -0.052 | sotrastaurin -0.043 | alvocidib 0.033 | Tubastatin A -0.001 | [1] 0.002 | defactinib -0.005 | rucaparib 0.093 | [2] 0.007 | encorafenib 0.039 | [3] 0.028 | [4] -0.084 | filanesib -0.004 | zotarolimus 0.017 | idasanutlin -0.001 | alisertib -0.054 | [5] 0.047 | gefitinib -0.026 | [6] 0.025 | lapatinib -0.032 | pictilisib 0.108
